Laboratory results reported in the supplement of paper PMC4604168 (melanoma cell lines).
This is one part of the list. Many values rest on one well or one pass, so single values are uncertain.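 Cells were imaged in 1,536-well plates, and nuclei stained with an antibody against cleaved PARP were counted against all DNA-stained nuclei to give the apoptosis fraction. Screening doses were chosen to leave most cells alive, and resting and induced cleaved-PARP levels differ strongly between cell lines.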

How the values were obtained:
Assay in all cases: cleaved PARP positive nuclei fraction relative to DMSO control; melanoma cells; higher = more apoptosis
Details in all cases: library dose: low library concentration; 72 h
CBRC034 = test system: CBRC034 (line from a melanoma biopsy)
COLO792 = test system: COLO792
COLO800 = test system: COLO800
COLO829 = test system: COLO829
G361 = test system: G361
IPC-298 = test system: IPC-298
IST-MEL1 = test system: IST-MEL1
LB2518-MEL = test system: LB2518-MEL
LOXIMVI = test system: LOXIMVI
MZ2-MEL = test system: MZ2-MEL
MeWo = test system: MeWo
RPMI7951 = test system: RPMI7951
RVH-421 = test system: RVH-421
SkMel28 = test system: SkMel28
SkMel30 = test system: SkMel30
SkMel5 = test system: SkMel5
UACC257 = test system: UACC257
UACC62 = test system: UACC62

Row | Structure (SMILES) | cleaved PARP positive nuclei fraction (CBRC034) | cleaved PARP positive nuclei fraction (COLO792) | cleaved PARP positive nuclei fraction (COLO800) | cleaved PARP positive nuclei fraction (COLO829) | cleaved PARP positive nuclei fraction (G361) | cleaved PARP positive nuclei fraction (IPC-298) | cleaved PARP positive nuclei fraction (IST-MEL1) | cleaved PARP positive nuclei fraction (LB2518-MEL) | cleaved PARP positive nuclei fraction (LOXIMVI) | cleaved PARP positive nuclei fraction (MZ2-MEL) | cleaved PARP positive nuclei fraction (MeWo) | cleaved PARP positive nuclei fraction (RPMI7951) | cleaved PARP positive nuclei fraction (RVH-421) | cleaved PARP positive nuclei fraction (SkMel28) | cleaved PARP positive nuclei fraction (SkMel30) | cleaved PARP positive nuclei fraction (SkMel5) | cleaved PARP positive nuclei fraction (UACC257) | cleaved PARP positive nuclei fraction (UACC62)
1 | O=C(O)c1ccc(-c2c[nH]c3ncc(-c4ccccc4)cc23)cc1C1CCCC1 + CCc1ccc(CCOc2ccc(CC3SC(=O)NC3=O)cc2)nc1 [pioglitazone] (first compound 0.16 µM, partner dose 2 µM) | 46.5% | 86% | 119% | 215% | 122% | 112% | 249% | 240% | 105% | 286% | 177% | 89.4% | 41.8% | 147% | 55% | 70.2% | 13.7% | 45%
2 | O=C1NC(=O)/C(=C/c2ccc(-c3ccc(F)cc3O)o2)S1 + c1cc(-c2cnn3cc(-c4ccc(OCCN5CCCCC5)cc4)cnc23)ccn1 [Dorsomorphin] (first compound 1 µM, partner dose 0.4 µM) | 42.5% | 103% | 64.9% | 67.2% | 146% | 42.9% | 80.7% | 87% | 33% | 81.8% | 53.9% | 37.9% | 34.8% | 116% | 63.6% | 34.5% | 97.3% | 80.6%
3 | COc1ccc2c(c1)CCC1C2CCC2(C)C(NCCCCCCN3C(=O)C=CC3=O)CCC12 (centres undefined) + Oc1nc(-c2ccc(C(F)(F)F)cc2)nc2c1CSCC2 [XAV939] (first compound 0.4 µM, partner dose 2 µM) | 18.9% | 220% | 66.1% | 141% | 91.8% | 160% | 249% | 85.4% | 97.5% | 61.8% | 60.9% | 182% | 43.2% | 163% | 98.9% | 64.2% | 110% | 80.9%
4 | NCC(=O)Nc1ccc(-n2nc(C(F)(F)F)cc2-c2ccc3c(ccc4ccccc43)c2)cc1 + CCc1ccc(CCOc2ccc(CC3SC(=O)NC3=O)cc2)nc1 [pioglitazone] (first compound 1 µM, partner dose 2 µM) | 43% | 60.8% | 179% | 158% | 82.6% | 168% | 48.4% | 168% | 46.6% | 42.6% | 194% | 86.8% | 46.2% | 249% | 96.9% | 36.3% | 173% | 54.1%
5 | O=C(O)c1ccc(-c2c[nH]c3ncc(-c4ccccc4)cc23)cc1C1CCCC1 + COc1cc(N2CCC(N3CCN(C)CC3)CC2)ccc1Nc1ncc(Cl)c(Nc2ccccc2S(=O)(=O)C(C)C)n1 [NVP-TAE684] (first compound 0.16 µM, partner dose 0.08 µM) | 141% | 117% | 90.1% | 149% | 212% | 31.9% | 91% | 79.7% | 52.6% | 131% | 84.5% | 101% | 70.4% | 138% | 29.7% | 34.5% | 108% | 191%
6 | N#Cc1c(O)c2c(-c3ccc(-c4ccccc4O)cc3)csc2[nH]c1=O + COc1ccc2c(c1)CCC1C2CCC2(C)C(NCCCCCCN3C(=O)C=CC3=O)CCC12 [U73122] (first compound 2 µM, partner dose 0.4 µM) | 120% | 108% | 126% | 99.5% | 58.3% | 79.5% | 28.2% | 138% | 48.4% | 173% | 106% | 95.2% | 81.3% | 149% | 72% | 59.7% | 156% | 404%
7 | c1cc(-c2cnn3cc(-c4ccc(OCCN5CCCCC5)cc4)cnc23)ccn1 [Dorsomorphin] + Cn1cc(/C=C2\C(=O)Nc3cccnc32)c2ccccc21 [GW441756] (first compound 0.4 µM, partner dose 0.4 µM) | 129% | 106% | 72.8% | 60.1% | 123% | 115% | 43.8% | 257% | 209% | 75.9% | 129% | 144% | 127% | 107% | 53.5% | 87.5% | 248% | 85.7%
8 | Cn1cc(/C=C2\C(=O)Nc3cccnc32)c2ccccc21 + O=c1cc(-c2cccc3c2Sc2ccccc2S3)oc(N2CCOCC2)c1 [KU55933] (first compound 0.4 µM, partner dose 1 µM) | 124% | 74.4% | 212% | 130% | 170% | 174% | 44.5% | 219% | 30.7% | 94.8% | 44.1% | 43.7% | 28.9% | 154% | 16.7% | 42.3% | 103% | 39%
9 | CCc1ccc(CCOc2ccc(CC3SC(=O)NC3=O)cc2)nc1 (centres undefined) [pioglitazone] + COc1ccc(COc2ccc(Cc3cnc(N)nc3N)cc2OC)cc1 [GW2580] (first compound 2 µM, partner dose 1 µM) | 45.8% | 59% | 128% | 86.5% | 133% | 80.7% | 242% | 62.2% | 66.3% | 21.1% | 110% | 93.3% | 70% | 66.3% | 99% | 27.8% | 50.4% | 28.1%
10 | Oc1nc(-c2ccc(C(F)(F)F)cc2)nc2c1CSCC2 + c1cc(-c2cnn3cc(-c4ccc(OCCN5CCCCC5)cc4)cnc23)ccn1 [Dorsomorphin] (first compound 2 µM, partner dose 0.4 µM) | 82.7% | 102% | 78.2% | 65.4% | 68.3% | 42.7% | 137% | 94.3% | 49.9% | 57% | 100% | 85.2% | 170% | 156% | 28.2% | 411% | 139% | 196%
11 | O=C1NC(=O)/C(=C/c2ccc(-c3ccc(F)cc3O)o2)S1 + Cn1cc(/C=C2\C(=O)Nc3cccnc32)c2ccccc21 [GW441756] (first compound 1 µM, partner dose 0.4 µM) | 41.6% | 120% | 73% | 52.4% | 92.8% | 57.9% | 30.9% | 88.7% | 82.8% | 45.4% | 98.9% | 37.7% | 68.6% | 116% | 106% | 64.2% | 133% | 38.1%
12 | CCN(CC)CCCCNc1ncc2cc(-c3cc(OC)cc(OC)c3)c(NC(=O)NC(C)(C)C)nc2n1 + O=C1NC(=O)/C(=C/c2ccc(-c3ccc(F)cc3O)o2)S1 [AS252424] (first compound 0.1 µM, partner dose 1 µM) | 43.9% | 72.8% | 168% | 62.5% | 17.1% | 110% | 270% | 177% | 28.7% | 70.4% | 55.8% | 40% | 19.8% | 108% | 33.5% | 127% | 127% | 109%
13 | COc1cc(N2CCC(N3CCN(C)CC3)CC2)ccc1Nc1ncc(Cl)c(Nc2ccccc2S(=O)(=O)C(C)C)n1 + Cn1cc(/C=C2\C(=O)Nc3cccnc32)c2ccccc21 [GW441756] (first compound 0.08 µM, partner dose 0.4 µM) | 150% | 103% | 55.5% | 61.6% | 91.9% | 104% | 174% | 70.8% | 37% | 288% | 55.1% | 86.9% | 96.1% | 156% | 42.5% | 37.5% | 174% | 250%
14 | CN(NC(=O)CC(=O)NN(C)C(=S)c1ccccc1)C(=S)c1ccccc1 + COc1ccc(COc2ccc(Cc3cnc(N)nc3N)cc2OC)cc1 [GW2580] (first compound 0.006 µM, partner dose 1 µM) | 92.7% | 122% | 197% | 278% | 90.5% | 171% | 177% | 111% | 110% | 56.7% | 386% | 78.6% | 76.1% | 161% | 66.2% | 128% | 65% | 96.9%
15 | COC(=O)c1sccc1S(=O)(=O)Nc1ccc(Nc2ccccc2)cc1OC + CCN(CC)CCCCNc1ncc2cc(-c3cc(OC)cc(OC)c3)c(NC(=O)NC(C)(C)C)nc2n1 [PD173074] (first compound 1 µM, partner dose 0.1 µM) | 89.6% | 302% | 74.6% | 84.8% | 78.1% | 105% | 45.1% | 163% | 44.8% | 293% | 139% | 82.1% | 60.4% | 151% | 146% | 40.6% | 189% | 80.5%
16 | CN(C)S(=O)(=O)c1ccc2c(c1)/C(=C/c1cc3c([nH]1)CCCC3)C(=O)N2 + Oc1nc(-c2ccc(C(F)(F)F)cc2)nc2c1CSCC2 [XAV939] (first compound 0.4 µM, partner dose 2 µM) | 131% | 115% | 107% | 96.1% | 129% | 73.6% | 85.4% | 163% | 58.2% | 227% | 68.9% | 260% | 70.5% | 94.4% | 83.9% | 61.9% | 103% | 35.8%
17 | O=C(O)c1ccc(-c2c[nH]c3ncc(-c4ccccc4)cc23)cc1C1CCCC1 + c1cc(-c2cnn3cc(-c4ccc(OCCN5CCCCC5)cc4)cnc23)ccn1 [Dorsomorphin] (first compound 0.16 µM, partner dose 0.4 µM) | 67.2% | 127% | 77.1% | 142% | 100% | 167% | 97.8% | 77.9% | 172% | 90.7% | 30.4% | 82.8% | 58.7% | 81.9% | 49.6% | 60.6% | 124% | 37.3%
18 | COc1cc2c(Oc3ccc4[nH]c(C)cc4c3F)ncnc2cc1OCCCN1CCCC1 [cediranib] + COc1ccc(COc2ccc(Cc3cnc(N)nc3N)cc2OC)cc1 [GW2580] (first compound 0.4 µM, partner dose 1 µM) | 91.9% | 132% | 38.6% | 60.7% | 159% | 161% | 75% | 76.2% | 33.5% | 86.4% | 80.7% | 45.2% | 107% | 100% | 21.2% | 58.7% | 93.8% | 72.3%

Full records from above. Values in the order: cleaved PARP positive nuclei fraction (CBRC034)	cleaved PARP positive nuclei fraction (COLO792)	cleaved PARP positive nuclei fraction (COLO800)	cleaved PARP positive nuclei fraction (COLO829)	cleaved PARP positive nuclei fraction (G361)	cleaved PARP positive nuclei fraction (IPC-298)	cleaved PARP positive nuclei fraction (IST-MEL1)	cleaved PARP positive nuclei fraction (LB2518-MEL)	cleaved PARP positive nuclei fraction (LOXIMVI)	cleaved PARP positive nuclei fraction (MZ2-MEL)	cleaved PARP positive nuclei fraction (MeWo)	cleaved PARP positive nuclei fraction (RPMI7951)	cleaved PARP positive nuclei fraction (RVH-421)	cleaved PARP positive nuclei fraction (SkMel28)	cleaved PARP positive nuclei fraction (SkMel30)	cleaved PARP positive nuclei fraction (SkMel5)	cleaved PARP positive nuclei fraction (UACC257)	cleaved PARP positive nuclei fraction (UACC62)
COc1cc2c(Oc3ccc4[nH]c(C)cc4c3F)ncnc2cc1OCCCN1CCCC1 [cediranib] + COc1ccc(COc2ccc(Cc3cnc(N)nc3N)cc2OC)cc1 [GW2580] (first compound 0.4 µM, partner dose 1 µM) in the list: 91.9%	132%	38.6%	60.7%	159%	161%	75%	76.2%	33.5%	86.4%	80.7%	45.2%	107%	100%	21.2%	58.7%	93.8%	72.3%
N#Cc1c(O)c2c(-c3ccc(-c4ccccc4O)cc3)csc2[nH]c1=O + COc1ccc2c(c1)CCC1C2CCC2(C)C(NCCCCCCN3C(=O)C=CC3=O)CCC12 [U73122] (first compound 2 µM, partner dose 0.4 µM) in the list: 120%	108%	126%	99.5%	58.3%	79.5%	28.2%	138%	48.4%	173%	106%	95.2%	81.3%	149%	72%	59.7%	156%	404%
